Source: US6878747B2, “Systemic formulations containing beta-carotene and derivatives thereof” (priority 2001, dated 2005)
At least one structure is not confirmed: it was looked up by name or label, or the drawing left a doubt.

Columns and labels:
[1] = Soluabilization in THF, Example 11; format: physicochemical; settings: hand shaking, results approximate
Description: All experimental substances (retinol, retinoic acid, 9-cis retinoic acid, retinal) were from Sigma (St. Louis, Mo.). All experimental substances were provided in sealed ampules.
The solvent, Tetrahydrofuran (stabilized with BHT) was also from Sigma.^1
^1 In the soluabilization experiments described in Examples 11 and 12 a small amount of yellow material appeared on the bottom of the stopper. In addition, since THF is somewhat volatile, the results are approximate.
2 ml shell vials from Electron Microscopy Sciences (Fort Washington, Pa.) Hamilton glass syringes (100 microliter, 250 microliter, 500 microliter) were from Fisher Scientific (Pittsburgh, Pa.). Silicone stoppers and other glassware were also from Fisher Scientific.
All of a retinoic acid ampule (100 mg ) was poured into a 2 ml shell vial and stoppered with a silicon stopper. Using a 500 microliter Hamilton syringe, 500 microliters of THF was added to the vial and then shaken by hand.
a. 25 mg ampule of retinol was poured into a 2 ml shell vial and it soluabilized completely in 250 microliters of THF.
b. 100 mg ampule of retinol was poured into a vial and it soluabilized completely in 0.5 ml of THF.
c. 100 mg ampule of retinol was poured into a vial and it soluabilized completely in 0.1 ml THF.
20 microliters THF from a Hamilton syringe was added to an ampule containing 1 mg of 9-cis retinoic acid. […]

[2] = Soluabilization in THF, Example 12; format: physicochemical; settings: results approximate
Description: All materials and sources were the same as in Example 11.The only additions were the use of 4.3 ml glass shell vials from Electron Microscopy Sciences, 10 ml glass centrifuge tubes from Fisher, and a 1.25 ml glass Hamilton syringe from Fisher.
All of a retinoic acid (1 gram) ampule was poured into a 10 ml glass centrifuge tube and stoppered with a silicon stopper. 7 ml of THF was added to the tube and then shaken by hand. This was performed twice.
All of a 1 gram ampule was poured into a 4.3 ml shell vial and stoppered with a silicon stopper. Using a 1.25 ml Hamilton syringe, 1.0 ml of THF was added to the vial and then shaken by hand. It soluabilized completely.
10 microliters THF from a Hamilton syringe was added to a ampule containing 1 mg of 9-cis retinoic acid. It appeared that complete soluability was achieved.
A 500 mg ampule of retinal was emptied into a 2 ml shell vial, and was completely soluabilized with hand shaking in 0.5 ml of THF.

CC1=C(/C=C/C(C)=C/C=C/C(C)=C/C(=O)O)C(C)(C)CCC1 [retinoic acid]
soluability in THF [1]: about 174 mg/ml THF | soluability in THF [2]: about 140 mg/ml THF
